{"source": "patent US7390874B2", "about": "“Peptide, method of production thereof, and pharmaceutical composition containing the same” (Kuboyama Bio Ken, Inc., priority 2003, dated 2008)", "conditions": "mice, gavage for 11 days", "description": "One tenth (0.1 ml) of the above suspension is inoculated into the left hind leg muscle (hamstring muscle mass) of each mouse. The inoculated mice are placed into one large cage and then randomly segregated into groups of five mice. The mice are housed in shoe box cages on wood shavings with free access to water and laboratory chow. The mice are weighed on the day of inoculation, on day 7, day 12, at time of sacrifice.", "data": [{"smiles": "N=C(N)NCCC[C@H](NC(=O)[C@H](CO)NC(=O)CNC(=O)[C@@H](N)Cc1ccc(O)cc1)C(=O)N[C@@H](CO)C(=O)O", "note": "[Peptide, tyrosine-glycine-serine-arginine-serine]", "values": [{"measurement": "toxicity (in words, from weight gain)", "value": "no toxicity"}]}]}
